The results in this text go back to the supplement of paper PMC12819154, “High-throughput peptide-centric local stability assay extends protein–ligand identification to membrane proteins, tissues and bacteria” (Nature Structural & Molecular Biology, 2025).

Protein sequences, listed by entry. Tags and fused reporters are not part of them. Lines headed by an entry give the natural chain unless they say otherwise; changes in a name come on top.
UniProt P39297: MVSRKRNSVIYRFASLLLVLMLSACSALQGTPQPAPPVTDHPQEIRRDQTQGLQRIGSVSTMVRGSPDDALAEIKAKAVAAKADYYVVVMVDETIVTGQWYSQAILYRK
UniProt P37349: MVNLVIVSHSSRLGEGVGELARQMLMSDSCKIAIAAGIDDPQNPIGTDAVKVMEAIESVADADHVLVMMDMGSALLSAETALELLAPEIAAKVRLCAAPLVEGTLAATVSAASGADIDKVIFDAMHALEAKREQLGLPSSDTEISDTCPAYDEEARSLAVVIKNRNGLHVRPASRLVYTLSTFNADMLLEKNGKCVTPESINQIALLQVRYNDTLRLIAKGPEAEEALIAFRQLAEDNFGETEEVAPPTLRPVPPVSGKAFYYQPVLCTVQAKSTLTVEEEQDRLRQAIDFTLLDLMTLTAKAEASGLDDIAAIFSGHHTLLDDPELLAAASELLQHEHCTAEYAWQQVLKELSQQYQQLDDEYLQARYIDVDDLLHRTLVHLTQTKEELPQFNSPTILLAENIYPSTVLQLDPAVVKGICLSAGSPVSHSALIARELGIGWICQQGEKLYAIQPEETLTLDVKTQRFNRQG
UniProt P36566: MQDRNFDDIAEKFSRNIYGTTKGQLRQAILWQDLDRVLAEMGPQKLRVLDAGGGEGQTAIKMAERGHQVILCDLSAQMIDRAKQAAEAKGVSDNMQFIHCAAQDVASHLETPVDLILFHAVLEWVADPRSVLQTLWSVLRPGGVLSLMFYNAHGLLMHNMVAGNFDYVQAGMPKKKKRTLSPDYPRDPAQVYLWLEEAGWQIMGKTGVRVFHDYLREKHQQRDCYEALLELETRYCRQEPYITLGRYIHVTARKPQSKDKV
UniProt P39199: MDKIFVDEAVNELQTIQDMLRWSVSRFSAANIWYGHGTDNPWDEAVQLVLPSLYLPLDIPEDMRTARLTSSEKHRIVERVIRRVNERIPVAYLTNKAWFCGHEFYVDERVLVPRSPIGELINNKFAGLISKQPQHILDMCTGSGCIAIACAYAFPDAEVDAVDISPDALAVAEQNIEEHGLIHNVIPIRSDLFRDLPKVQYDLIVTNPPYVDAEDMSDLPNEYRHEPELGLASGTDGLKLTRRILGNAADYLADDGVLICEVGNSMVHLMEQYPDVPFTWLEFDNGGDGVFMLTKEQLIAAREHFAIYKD
UniProt P37325: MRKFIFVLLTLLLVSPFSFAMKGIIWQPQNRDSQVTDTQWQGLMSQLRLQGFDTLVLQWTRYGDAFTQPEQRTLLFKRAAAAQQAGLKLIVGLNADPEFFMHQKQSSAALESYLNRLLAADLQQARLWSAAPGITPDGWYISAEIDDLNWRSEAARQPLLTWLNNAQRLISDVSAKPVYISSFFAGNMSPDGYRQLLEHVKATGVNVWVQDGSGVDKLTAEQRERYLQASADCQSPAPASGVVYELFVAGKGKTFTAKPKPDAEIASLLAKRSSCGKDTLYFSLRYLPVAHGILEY
UniProt P39165: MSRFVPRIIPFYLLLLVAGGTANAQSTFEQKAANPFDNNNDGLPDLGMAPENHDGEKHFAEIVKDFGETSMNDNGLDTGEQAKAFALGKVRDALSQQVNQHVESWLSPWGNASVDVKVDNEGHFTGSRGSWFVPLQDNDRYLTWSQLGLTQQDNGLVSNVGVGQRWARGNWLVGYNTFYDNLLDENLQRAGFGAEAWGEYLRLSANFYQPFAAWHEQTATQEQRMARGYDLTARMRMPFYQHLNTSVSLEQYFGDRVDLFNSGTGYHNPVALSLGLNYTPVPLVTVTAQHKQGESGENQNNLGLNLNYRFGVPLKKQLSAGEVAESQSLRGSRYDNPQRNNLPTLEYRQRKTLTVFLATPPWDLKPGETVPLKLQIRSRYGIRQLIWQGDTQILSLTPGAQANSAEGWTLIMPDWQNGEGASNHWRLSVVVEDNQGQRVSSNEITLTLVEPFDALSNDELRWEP
UniProt P37679: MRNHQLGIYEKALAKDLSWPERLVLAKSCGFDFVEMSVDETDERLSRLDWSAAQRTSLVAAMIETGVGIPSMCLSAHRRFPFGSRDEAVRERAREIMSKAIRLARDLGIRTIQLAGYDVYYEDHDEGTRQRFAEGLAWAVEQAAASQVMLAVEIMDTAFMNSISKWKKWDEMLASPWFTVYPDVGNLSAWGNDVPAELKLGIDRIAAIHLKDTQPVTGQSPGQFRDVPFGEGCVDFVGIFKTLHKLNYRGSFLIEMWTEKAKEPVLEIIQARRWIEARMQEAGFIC
UniProt P45736: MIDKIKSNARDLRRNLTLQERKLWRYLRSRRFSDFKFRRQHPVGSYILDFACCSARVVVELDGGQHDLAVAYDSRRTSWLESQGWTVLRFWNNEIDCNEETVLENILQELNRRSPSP
UniProt P39453: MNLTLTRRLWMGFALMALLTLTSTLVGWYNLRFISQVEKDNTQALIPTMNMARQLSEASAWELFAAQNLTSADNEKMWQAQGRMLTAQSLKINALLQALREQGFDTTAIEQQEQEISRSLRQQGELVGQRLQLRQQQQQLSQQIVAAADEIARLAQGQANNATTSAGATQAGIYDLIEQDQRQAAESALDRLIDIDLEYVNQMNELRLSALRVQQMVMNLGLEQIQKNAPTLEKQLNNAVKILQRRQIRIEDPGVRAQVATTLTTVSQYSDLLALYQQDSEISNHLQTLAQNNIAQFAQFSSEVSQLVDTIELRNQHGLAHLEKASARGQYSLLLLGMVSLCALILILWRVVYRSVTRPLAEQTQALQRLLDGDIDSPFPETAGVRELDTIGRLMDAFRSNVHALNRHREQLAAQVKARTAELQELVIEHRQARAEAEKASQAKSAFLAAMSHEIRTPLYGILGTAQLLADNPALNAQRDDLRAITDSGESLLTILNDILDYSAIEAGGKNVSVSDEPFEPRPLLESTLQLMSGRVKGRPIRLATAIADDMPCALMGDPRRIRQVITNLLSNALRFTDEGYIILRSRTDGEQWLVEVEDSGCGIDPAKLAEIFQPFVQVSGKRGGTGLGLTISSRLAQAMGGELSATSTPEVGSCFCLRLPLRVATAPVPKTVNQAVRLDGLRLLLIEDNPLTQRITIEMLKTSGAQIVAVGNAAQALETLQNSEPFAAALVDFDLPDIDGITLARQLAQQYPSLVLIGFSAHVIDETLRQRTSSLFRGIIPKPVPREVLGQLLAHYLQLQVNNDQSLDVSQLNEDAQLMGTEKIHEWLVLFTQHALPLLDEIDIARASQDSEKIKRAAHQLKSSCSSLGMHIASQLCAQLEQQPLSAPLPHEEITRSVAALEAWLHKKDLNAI
UniProt P37759: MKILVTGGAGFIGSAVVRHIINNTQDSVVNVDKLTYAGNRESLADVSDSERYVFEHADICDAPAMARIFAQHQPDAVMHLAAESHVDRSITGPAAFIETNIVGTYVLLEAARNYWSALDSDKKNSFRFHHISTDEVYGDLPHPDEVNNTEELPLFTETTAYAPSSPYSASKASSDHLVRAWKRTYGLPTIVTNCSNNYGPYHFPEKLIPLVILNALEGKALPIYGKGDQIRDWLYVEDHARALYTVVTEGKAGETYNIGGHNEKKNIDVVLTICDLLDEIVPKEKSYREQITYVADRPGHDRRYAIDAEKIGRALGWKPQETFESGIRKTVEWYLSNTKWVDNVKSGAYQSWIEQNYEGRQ
UniProt P45464: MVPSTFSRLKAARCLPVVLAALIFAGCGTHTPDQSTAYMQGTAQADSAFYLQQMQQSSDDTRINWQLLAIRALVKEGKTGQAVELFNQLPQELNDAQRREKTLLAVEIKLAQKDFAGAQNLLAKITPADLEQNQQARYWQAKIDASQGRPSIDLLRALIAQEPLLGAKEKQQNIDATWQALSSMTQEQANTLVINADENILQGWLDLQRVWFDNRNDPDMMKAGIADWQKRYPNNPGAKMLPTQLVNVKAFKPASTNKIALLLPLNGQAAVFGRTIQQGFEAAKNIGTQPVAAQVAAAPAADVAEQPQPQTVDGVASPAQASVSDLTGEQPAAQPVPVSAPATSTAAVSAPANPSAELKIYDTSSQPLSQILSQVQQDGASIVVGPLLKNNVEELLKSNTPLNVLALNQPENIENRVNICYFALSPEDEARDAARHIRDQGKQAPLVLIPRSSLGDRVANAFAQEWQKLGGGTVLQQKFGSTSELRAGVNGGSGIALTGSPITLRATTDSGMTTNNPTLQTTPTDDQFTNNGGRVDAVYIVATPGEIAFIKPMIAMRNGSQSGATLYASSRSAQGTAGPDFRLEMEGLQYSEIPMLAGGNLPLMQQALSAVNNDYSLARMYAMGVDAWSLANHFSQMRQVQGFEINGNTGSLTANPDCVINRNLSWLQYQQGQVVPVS
UniProt P42589: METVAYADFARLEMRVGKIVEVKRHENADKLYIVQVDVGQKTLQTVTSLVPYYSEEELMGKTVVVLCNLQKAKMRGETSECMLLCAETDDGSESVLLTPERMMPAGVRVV
UniProt P37647: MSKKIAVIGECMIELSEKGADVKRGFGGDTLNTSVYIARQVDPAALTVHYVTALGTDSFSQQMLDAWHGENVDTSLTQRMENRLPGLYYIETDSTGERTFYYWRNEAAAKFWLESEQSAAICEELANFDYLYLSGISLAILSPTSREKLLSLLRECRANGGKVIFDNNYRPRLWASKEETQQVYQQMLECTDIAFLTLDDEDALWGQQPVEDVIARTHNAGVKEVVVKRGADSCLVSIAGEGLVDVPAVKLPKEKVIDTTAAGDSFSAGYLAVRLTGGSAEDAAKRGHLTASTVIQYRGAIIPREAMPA
UniProt P37641: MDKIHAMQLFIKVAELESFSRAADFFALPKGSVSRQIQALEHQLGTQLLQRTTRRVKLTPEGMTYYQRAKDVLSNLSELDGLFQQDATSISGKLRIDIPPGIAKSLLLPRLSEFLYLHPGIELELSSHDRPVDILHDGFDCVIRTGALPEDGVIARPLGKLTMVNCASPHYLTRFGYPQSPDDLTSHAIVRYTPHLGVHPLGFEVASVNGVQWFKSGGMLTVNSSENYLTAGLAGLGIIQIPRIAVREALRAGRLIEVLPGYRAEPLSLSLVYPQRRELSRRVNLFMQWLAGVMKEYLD
UniProt P37309: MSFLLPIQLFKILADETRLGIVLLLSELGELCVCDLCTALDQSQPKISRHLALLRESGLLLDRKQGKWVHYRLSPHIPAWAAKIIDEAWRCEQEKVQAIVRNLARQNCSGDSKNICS
UniProt P45468: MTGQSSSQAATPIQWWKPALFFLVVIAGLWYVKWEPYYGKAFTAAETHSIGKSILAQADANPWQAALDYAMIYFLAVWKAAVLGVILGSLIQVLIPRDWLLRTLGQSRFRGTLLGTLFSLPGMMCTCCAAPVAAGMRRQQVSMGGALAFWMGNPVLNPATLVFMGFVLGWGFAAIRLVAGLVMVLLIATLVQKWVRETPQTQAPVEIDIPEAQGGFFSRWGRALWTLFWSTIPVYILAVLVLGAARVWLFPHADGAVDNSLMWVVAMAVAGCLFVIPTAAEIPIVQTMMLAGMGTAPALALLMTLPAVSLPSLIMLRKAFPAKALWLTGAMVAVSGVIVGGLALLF
UniProt P36930: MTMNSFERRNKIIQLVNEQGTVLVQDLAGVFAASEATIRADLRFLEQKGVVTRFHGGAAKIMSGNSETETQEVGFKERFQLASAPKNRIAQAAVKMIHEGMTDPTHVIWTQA
UniProt P39298: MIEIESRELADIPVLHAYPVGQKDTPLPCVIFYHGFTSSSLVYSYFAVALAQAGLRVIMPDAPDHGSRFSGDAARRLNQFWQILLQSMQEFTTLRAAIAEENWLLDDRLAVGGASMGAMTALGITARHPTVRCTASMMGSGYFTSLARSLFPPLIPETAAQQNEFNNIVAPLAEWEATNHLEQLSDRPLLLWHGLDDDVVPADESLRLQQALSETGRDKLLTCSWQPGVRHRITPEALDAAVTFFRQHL
UniProt P38104: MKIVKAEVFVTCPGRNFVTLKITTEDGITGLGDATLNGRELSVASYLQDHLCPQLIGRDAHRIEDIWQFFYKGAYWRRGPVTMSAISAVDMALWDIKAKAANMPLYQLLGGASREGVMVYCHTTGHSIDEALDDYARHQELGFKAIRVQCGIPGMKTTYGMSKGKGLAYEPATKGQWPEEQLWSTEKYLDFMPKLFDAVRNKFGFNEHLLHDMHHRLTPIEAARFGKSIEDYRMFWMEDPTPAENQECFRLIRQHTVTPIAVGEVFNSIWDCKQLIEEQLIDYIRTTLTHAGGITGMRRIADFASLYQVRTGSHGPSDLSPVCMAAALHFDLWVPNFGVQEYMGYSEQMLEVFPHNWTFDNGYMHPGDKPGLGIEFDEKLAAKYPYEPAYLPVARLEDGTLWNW
UniProt P37182: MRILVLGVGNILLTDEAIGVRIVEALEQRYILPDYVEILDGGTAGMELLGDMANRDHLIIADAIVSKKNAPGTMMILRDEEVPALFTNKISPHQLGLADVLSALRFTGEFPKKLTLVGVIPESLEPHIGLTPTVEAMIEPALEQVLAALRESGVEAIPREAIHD

Some of the results follow. Most entries show no effect beyond the scatter of the controls.

Compound in this experiment: CC1(C)S[C@@H]2[C@H](NC(=O)[C@H](N)c3ccccc3)C(=O)N2[C@H]1C(=O)O [ampicillin]
In words: log2 fold change of tryptic peptide abundance, ligand vs vehicle (limited proteolysis) (log2 ratio); higher = more trypsin-susceptible (destabilized). To be noted: ligand concentration: 10 uM; sample: E. coli crude lysate.
In the case of “UniProt P39297 (peptide sequence: IGSVSTMVR, peptide start residue: 56)”, the log2 fold change was 0.327.
As for “UniProt P37349 (peptide sequence: YIDVDDLLHR, peptide start residue: 369)”, the figure is 0.148; as for “UniProt P36566 (peptide sequence: NFDDIAEKFSR, peptide start residue: 5)”, -0.44; as for “UniProt P39199 (peptide sequence: SPIGELINNK, peptide start residue: 115)”, -0.177.
On to “UniProt P39382 (peptide sequence: EKNPIEVYK, peptide start residue: 171)”, for which the log2 fold change was found to be 0.362.
Take “UniProt P37595 (peptide sequence: AGAVAGVSHLRNPVLAAR, peptide start residue: 94)”: the log2 fold change was -0.155.
As for “UniProt P45522 (peptide sequence: GRVEAHELLQAGVTQFSR, peptide start residue: 500)”, the figure is -0.513; as for “UniProt P43676 (peptide sequence: IPEDRKK, peptide start residue: 193)”, 0.116; as for “UniProt P37024 (peptide sequence: DLSDFWK, peptide start residue: 767)”, -0.169.
On to “UniProt P37325 (peptide sequence: AAAAQQAGLK, peptide start residue: 79)”, for which the log2 fold change was -0.755.
As for “UniProt P45463 (peptide sequence: CYEHALEILTQYQR, peptide start residue: 69)”, the log2 fold change stood at 0.462.
As for “UniProt P45423 (peptide sequence: DLCLRYKR, peptide start residue: 73)”, the figure is -0.02.
As for “UniProt P39165 (peptide sequence: NNLPTLEYR, peptide start residue: 340)”, the figure is 0.149; as for “UniProt P37679 (peptide sequence: NHQLGIYEK, peptide start residue: 3)”, -0.426.
“UniProt P45736 (peptide sequence: NLTLQERK, peptide start residue: 15)”: the log2 fold change was -0.162.
As for “UniProt P39453 (peptide sequence: TAELQELVIEHR, peptide start residue: 420)”, the log2 fold change came to 0.397.
As to “UniProt P37617 (peptide sequence: VSGMDCAACARK, peptide start residue: 54)”, the log2 fold change worked out at 1.18.
For the target “UniProt P37759 (peptide sequence: ALGWKPQETFESGIRK, peptide start residue: 314)”, the log2 fold change is -0.195.
As for “UniProt P37767 (peptide sequence: QRYQGLAQSDKK, peptide start residue: 9)”, the figure is -0.169.
In the case of “UniProt P45464 (peptide sequence: SAQGTAGPDFR, peptide start residue: 572)”, the log2 fold change amounted to 0.391.
For the target “UniProt P42589 (peptide sequence: TVVVLCNLQK, peptide start residue: 62)”, the log2 fold change is 0.0314.
The same measure for “UniProt P37647 (peptide sequence: IAVIGECMIELSEKGADVKR, peptide start residue: 5)”: 0.402.
As for “UniProt P37641 (peptide sequence: LIEVLPGYR, peptide start residue: 255)”, the log2 fold change was -0.313.
As for “UniProt P37309 (peptide sequence: ESGLLLDRK, peptide start residue: 56)”, the figure is -0.19; as for “UniProt P45468 (peptide sequence: AFTAAETHSIGK, peptide start residue: 41)”, 0.0921.
The same measure for “UniProt P39396 (peptide sequence: DIGEPSVLNR, peptide start residue: 453)”: -0.0507; for “UniProt P36930 (peptide sequence: FQLASAPK, peptide start residue: 79)”: 0.0165.
Regarding “UniProt P39298 (peptide sequence: LQQALSETGRDK, peptide start residue: 208)”, the log2 fold change is -0.219.
Take “UniProt P39172 (peptide sequence: SDEDHHHGDFNMHLWLSPEIAR, peptide start residue: 131)”: the log2 fold change is 0.39.
Regarding “UniProt P38104 (peptide sequence: LAAKYPYEPAYLPVAR, peptide start residue: 380)”, the log2 fold change amounted to 0.262.
As for “UniProt P37182 (peptide sequence: FTGEFPKK, peptide start residue: 106)”, the figure is -0.924.
